Measured values taken from US20010006660A1, “LOW-RIGIDITY LIPOSOMAL FORMULATION” (priority 1999, published 2001).

Test system: Candida albicans, strain 7238
Test: MIC of yeast strain
Assay type: cell-based
Method: Yeast respiratory infections are a major problem in immunocompromised patients. To evaluate the fungicide activity of the liposomal-amphotericin B formulation produced according to the present invention (DPPC/DMPG), in vitro tests were performed against Candida albicans, strain 7238, MIC=1 μg/ml. To culture tubes containing 22.5 ml of C. albicans cells (final cell concentration of 103/ml), 7.5 ml of RPMI medium 1640 containing liposome-amphotericin B (final concentration of 0.125 μg/ml), free amphotericin B (final concentration of 0.125 μg/ml), or control PBS were added at time zero. Experiments were done in triplicate. At times 0, 3, 6, 12, 24, and 36 hours following the addition of antibiotic or control, 1.5 ml samples were collected and serial 10 fold dilutions were made and spread in triplicate on proteose peptone agar plates. CFU were counted after 24 hour and 48 hour incubations ar 37° C. under CO2. Counts were expressed in log CFU per ml of culture media.

- MIC: 1 µg/mL
Compound: C[C@@H]1[C@H](O)[C@@H](C)/C=C/C=C/C=C/C=C/C=C/C=C/C=C/[C@H](O[C@@H]2O[C@H](C)[C@@H](O)[C@H](N)[C@@H]2O)C[C@@H]2O[C@](O)(C[C@@H](O)C[C@@H](O)[C@H](O)CC[C@@H](O)C[C@@H](O)CC(=O)O[C@H]1C)C[C@H](O)[C@H]2C(=O)O [amphotericin B]
